Test: NIR-808 laser induced temperature rise (photothermal effect)
Assay type: physicochemical

CC1(C)C(/C=C/C=C/C=C/C=C2\N(CCCCS(=O)(=O)O)c3ccc4ccccc4c3C2(C)C)=[N+](CCCCS(=O)(=O)[O-])c2ccc3ccccc3c21 [ICG, indocyanine green]
temperature after 10 min of laser irradiation (ICG concentration of 27 μg/mL): 46 °C | temperature elevation, on/off cycle 1 (first of three successive on/off cycles, similar ICG concentrations): 22 °C | temperature elevation, on/off cycle 2 (second of three successive on/off cycles, similar ICG concentrations): 12 °C | temperature elevation, on/off cycle 3 (third of three successive on/off cycles, similar ICG concentrations): 4 °C
